Reference: paper PMC8981703 (BMC Medicine, 2022)

Test system: Chinese patients with RRMM
Assay: MARCH: safety (TEAEs, CTCAE version 4.03), exposure, dose modification, disposition
Format: in vivo
Experimental: Response assessment was performed every 28 days on day 1 of each cycle. Adverse event (AE) was assessed using the NCI Common Terminology Criteria for Adverse Events (CTCAE) version 4.03. […] Plasma concentrations were determined at the following distinct time points: pre-dose, 0.5 h, 1 h, 1.5 h, 2 h, 3 h, 4 h, 5 h, 6 h, 8 h, 10 h, 24 h, and 48 h. Pharmacokinetics ethnicity sensitivity analysis was performed to evaluate the potential impact of ethnic factors on the acceptability and difference in the data of Chinese and western patients.
Patients who received at least 1 dose of study treatment (modified intent-to-treat [mITT]/safety population) were used for efficacy and safety analysis. Demographics, baseline disease characteristics, and prior anti-MM therapies were summarized for the mITT populations. For the primary analysis of ORR, the primary endpoint, the sample size of 82 patients would provide 80% power to detect a statistical significance with the target ORR of 28% against the threshold ORR (i.e., null hypothesis) of 15% (one-sided α=0.025); statistical significance would be declared if the lower bound of the 95% confidence interval (CI) would be greater than 15%. Time to event endpoints including PFS, OS, and DOR were analyzed using the Kaplan-Meier method.

O=C(/C=C\n1cnc(-c2cc(C(F)(F)F)cc(C(F)(F)F)c2)n1)NNc1cnccn1 [selinexor, Selinexor]
median weekly dose received (in vivo): 113.7 mg
median treatment duration (patients who did not have dose reduction): 4.3 weeks
median treatment duration (patients who had dose reduction): 16.6 weeks
